In PMC11967919:
For at least one entry, the source does not settle the construct or the ends of the probe.

Tested on: His-GhLPF1 (R2R3 MYB) (Gossypium hirsutum)
Assay: EMSA
Conditions: biotin probe, 50x and 100x unlabeled cold probe used as competitor; Beyotime chemiluminescent EMSA kit (GS009), 6% native PAGE; pH and temperature not stated; recombinant protein; label: biotin (kit-labelled)

CAATTCACATCAACTCAATGCCTTTATATAACAGCTCTCAAAGGAGCAGGCTCCTT (double strand) [proHB6-probe1]
binding result: binds
